In paper PMC12667536:
No constants are given. Whether binding was seen depends on the method and setting. In cells and extracts the contact can be indirect. Some results given as binding are weak or reduced against the parent protein; the word gives no strength. Sequences can lack the tags named with a protein.

The chains behind the UniProt entries cited, without tags or fusion partners. Where a name states a change or a piece, a line headed by the entry shows the natural chain unless it says otherwise.
UniProt P05556: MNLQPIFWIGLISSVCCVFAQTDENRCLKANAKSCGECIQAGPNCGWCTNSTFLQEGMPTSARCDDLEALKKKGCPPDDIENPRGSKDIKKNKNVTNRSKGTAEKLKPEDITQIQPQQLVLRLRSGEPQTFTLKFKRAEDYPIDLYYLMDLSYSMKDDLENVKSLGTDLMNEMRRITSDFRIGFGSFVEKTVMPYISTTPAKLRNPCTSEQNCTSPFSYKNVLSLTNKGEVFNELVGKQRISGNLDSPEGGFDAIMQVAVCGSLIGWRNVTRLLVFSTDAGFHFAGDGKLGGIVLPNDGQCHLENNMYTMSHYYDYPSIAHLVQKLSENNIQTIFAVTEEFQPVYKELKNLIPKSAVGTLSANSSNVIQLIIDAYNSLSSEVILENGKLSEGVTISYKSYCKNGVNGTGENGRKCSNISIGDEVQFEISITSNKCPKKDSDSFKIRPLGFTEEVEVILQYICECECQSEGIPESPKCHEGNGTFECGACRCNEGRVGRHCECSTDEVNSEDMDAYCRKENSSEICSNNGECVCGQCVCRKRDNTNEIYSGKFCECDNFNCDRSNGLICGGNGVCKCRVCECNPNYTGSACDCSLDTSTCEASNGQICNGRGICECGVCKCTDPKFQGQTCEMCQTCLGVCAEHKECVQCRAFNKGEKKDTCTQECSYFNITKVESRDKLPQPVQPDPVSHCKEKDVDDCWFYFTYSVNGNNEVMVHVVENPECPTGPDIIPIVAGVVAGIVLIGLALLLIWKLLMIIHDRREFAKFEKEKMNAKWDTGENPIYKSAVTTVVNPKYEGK

How the values were obtained:
[1] = biological target: T1, Flag-GCWT (wild type group-specific component protein, vitamin D binding protein) (UniProt P02774); experiment: co-IP; N008 human primary Schwann cells; lysate (IP lysis buffer) incubated with anti-Flag magnetic beads overnight at 4 °C, PBST washes; immunoblot
T1 sequence: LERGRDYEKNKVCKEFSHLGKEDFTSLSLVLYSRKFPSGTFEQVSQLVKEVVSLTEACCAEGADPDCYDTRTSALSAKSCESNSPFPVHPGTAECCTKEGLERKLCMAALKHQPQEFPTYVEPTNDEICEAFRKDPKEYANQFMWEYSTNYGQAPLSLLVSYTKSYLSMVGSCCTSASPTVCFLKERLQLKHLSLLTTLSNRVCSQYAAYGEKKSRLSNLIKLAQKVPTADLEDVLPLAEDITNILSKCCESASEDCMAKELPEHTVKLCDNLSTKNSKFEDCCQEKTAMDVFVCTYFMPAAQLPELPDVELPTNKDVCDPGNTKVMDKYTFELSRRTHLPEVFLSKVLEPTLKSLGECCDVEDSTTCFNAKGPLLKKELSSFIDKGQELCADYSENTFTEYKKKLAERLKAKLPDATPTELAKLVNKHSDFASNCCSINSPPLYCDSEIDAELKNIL

[2] = biological target: T1, Flag-GCWT (wild type group-specific component protein, vitamin D binding protein); experiment: co-IP; shGCWT-2 Patu8988 and PANC-1 cells overexpressing Flag-GCWT or Flag-GCDEL; lysate (IP lysis buffer) incubated with anti-Flag magnetic beads overnight at 4 °C, PBST washes; immunoblot; wild type cells as negative control

binding [1]: binds | binding [2]: binds
Substance: integrin β1 (ITGB1) (from UniProt P05556 21-798) (receptor)
